The supplement of paper PMC7125110
± gives the standard error. The uncertainty is large for many entries.

B1: glmS ribozyme (parent)
chain: AUAAAAGCGCCAGAACUACAGAAAUGUAGUUGACGAGGAGGAGGUUUAUCGAAUUUUCGGCGGAUGCCUCCAAA

Variants of: B1
Test: self-cleavage kobs at 640 uM GlcN6P; higher = faster cleavage; RNA array
Conditions: with glucosamine-6-phosphate
How it was run: (§1)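 Glucosamine-6-phosphate, from 40 μM to 10 mM in HEPES/KCl/Mg(OAc)2 buffer, was flowed over sequenced MiSeq chips carrying barcoded ribozyme variants transcribed in situ by E. coli RNA polymerase. A hybridised Cy3 probe tracked the variants at 37 °C as tiles were imaged over ~14 h. kobs, kcat and KM were obtained by fitting normalised per-tile medians to exponential decays and then applying weighted Michaelis–Menten fits across concentrations.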

Variant	self-cleavage kobs at 640 uM GlcN6P
C16A G59A C70G	3.23e-05 ± 3e-05 s⁻¹
A14U A33G A52G C68U C70G C71A	5.49e-05 ± 4.5e-05 s⁻¹
G13U C50U G60A C70G	3.59e-05 ± 3.5e-05 s⁻¹
A12C G43A	2.28e-05 ± 1.2e-05 s⁻¹
U49A C50U C68U	3.99e-05 ± 3.3e-05 s⁻¹
C8U A15U U46G C50G C71U	1.6e-05 ± 1.6e-05 s⁻¹
G29U G38A G59A C67A U69G	2.81e-05 ± 2.6e-05 s⁻¹
A6C A42G	2.12e-05 ± 1.6e-05 s⁻¹
A5U A64U	1.91e-05 ± 1.6e-05 s⁻¹
C67G C71G	1.7e-05 ± 1.5e-05 s⁻¹
G13U G37A	3.28e-05 ± 3.1e-05 s⁻¹
G41U A42G C70A	0.0126 ± 0.0084 s⁻¹
U55G G59C C67G	6.08e-05 ± 3e-05 s⁻¹
C58U C67U	1.91e-05 ± 1.1e-05 s⁻¹
A6U G51A C71A	2.79e-05 ± 2.5e-05 s⁻¹
A14U C16G U65A	3.11e-05 ± 2.8e-05 s⁻¹
U54G U57C	2.43e-05 ± 1.6e-05 s⁻¹

Variant	self-cleavage kobs at 640 uM GlcN6P
A53G A64U C67A	2.95e-05 ± 2.4e-05 s⁻¹
A6C U49A C71G	4.45e-05 ± 2.7e-05 s⁻¹
A12U C50G C61U	2.88e-05 ± 2.1e-05 s⁻¹
C58G U65G C70G	3.72e-05 ± 2.3e-05 s⁻¹
U57A C70A	2.26e-05 ± 2.3e-05 s⁻¹
U69A C70A	2.37e-05 ± 2.1e-05 s⁻¹
C34U G35A U56G	4.83e-05 ± 2.9e-05 s⁻¹
A36G C70G	1.6e-05 ± 1.4e-05 s⁻¹
U54G G59U	2.38e-05 ± 2.1e-05 s⁻¹
U46C C58G	3.56e-05 ± 2.7e-05 s⁻¹
G59C U69G	2.28e-05 ± 1.7e-05 s⁻¹
G21U G38A U47C G63C C71G	2.79e-05 ± 2.6e-05 s⁻¹
C11A G29U C50G	0.000351 ± 0.00022 s⁻¹
C10U G32A C70U	3.51e-05 ± 2.7e-05 s⁻¹
G37A A42C	2.63e-05 ± 2.4e-05 s⁻¹
U57A U69C	2.27e-05 ± 1.7e-05 s⁻¹

Single entries from the results shown.
C34U G35A U56G | self-cleavage kobs at 640 uM GlcN6P: 4.83e-05 ± 2.9e-05 s⁻¹
A12U C50G C61U | self-cleavage kobs at 640 uM GlcN6P: 2.88e-05 ± 2.1e-05 s⁻¹

Variants of: B1
Test: self-cleavage kobs at 2500 uM GlcN6P; higher = faster cleavage; RNA array
Conditions: with glucosamine-6-phosphate
How it was run: as §1

Variant	self-cleavage kobs at 2500 uM GlcN6P
U30G A33C	2.21e-05 ± 1.4e-05 s⁻¹
C10U G38U U57G C61G G66U	6.15e-05 ± 3.4e-05 s⁻¹
A6C U56G	1.93e-05 ± 1.7e-05 s⁻¹
A33U U46C	2.48e-05 ± 2.3e-05 s⁻¹
A14C C61U C68G	3.25e-05 ± 2.5e-05 s⁻¹
A14G U31G G40C A52G	4.72e-05 ± 2.8e-05 s⁻¹
G32A U69A C70G	2.32e-05 ± 2.1e-05 s⁻¹
A12U A53U C71U	0.0578 ± 0.051 s⁻¹
A36G G37A C61G C71G	3.77e-05 ± 1.9e-05 s⁻¹
A15C G40A U49G C71U	3.15e-05 ± 2.2e-05 s⁻¹
G29U G38A G59A C67A U69G	3.21e-05 ± 1.9e-05 s⁻¹
C8A G62U	1.54e-05 ± 1.5e-05 s⁻¹
C16A U54A U69G	4.35e-05 ± 2.8e-05 s⁻¹
G59A C70G	2.48e-05 ± 1.5e-05 s⁻¹
A14G G29U A39U	0.00455 ± 0.0025 s⁻¹
G51U C67A C71U	2.4e-05 ± 1.8e-05 s⁻¹
C11U C50G U55G	3.84e-05 ± 2.1e-05 s⁻¹
U55G G59C C67G	3.51e-05 ± 3e-05 s⁻¹

Variant	self-cleavage kobs at 2500 uM GlcN6P
A12U U30A G44U C71U	2.43e-05 ± 2.3e-05 s⁻¹
C10U C11U A12G	3.29e-05 ± 2e-05 s⁻¹
C16U A33U C71G	3.58e-05 ± 2.3e-05 s⁻¹
U45G U47C	0.000586 ± 0.00054 s⁻¹
A6U G51A C71A	5.16e-05 ± 3.4e-05 s⁻¹
A53G A64U C67A	4.59e-05 ± 2.6e-05 s⁻¹
U30A C50A C67A C70G	3.5e-05 ± 2.2e-05 s⁻¹
C58G U65G C70G	2.65e-05 ± 2.5e-05 s⁻¹
C11G C16A C50G U65G	4.75e-05 ± 3.1e-05 s⁻¹
U57A C70A	1.95e-05 ± 1.2e-05 s⁻¹
C11A G29A	1.97e-05 ± 1.3e-05 s⁻¹
U46C C58G	1.25e-05 ± 1.2e-05 s⁻¹
U54A A64G	0.0589 ± 0.04 s⁻¹
U30G C68A	2.44e-05 ± 1.8e-05 s⁻¹
G13C G29A C61G C67U	2.54e-05 ± 1.9e-05 s⁻¹
C10G U30C C68G	3.15e-05 ± 2.1e-05 s⁻¹
A12U U30A	0.0895 ± 0.069 s⁻¹

Rewritten in CSV form: part of the list above.
Variant,self-cleavage kobs at 2500 uM GlcN6P
A15C G40A U49G C71U,3.15e-05 ± 2.2e-05 s⁻¹
C11G C16A C50G U65G,4.75e-05 ± 3.1e-05 s⁻¹

Variants of: B1
Test: self-cleavage kobs at 10000 uM GlcN6P; higher = faster cleavage; RNA array
Conditions: with glucosamine-6-phosphate
How it was run: as §1

Variant	self-cleavage kobs at 10000 uM GlcN6P
A33U U46C	2.07e-05 ± 1.3e-05 s⁻¹
C10U C11U A12G	2.05e-05 ± 1.2e-05 s⁻¹
C11U A36G G37C C50G A64C	0.0057 ± 0.003 s⁻¹
U2C C11U G40A U45G	3.03e-05 ± 2.3e-05 s⁻¹
C10U G32A C70U	1.66e-05 ± 1.5e-05 s⁻¹
A6U C50U U56A G59A G62A C68G	2.31e-05 ± 2e-05 s⁻¹

Variants of: B1
Test: self-cleavage kobs at 160 uM GlcN6P; higher = faster cleavage; RNA array
Conditions: with glucosamine-6-phosphate
How it was run: as §1

Variant	self-cleavage kobs at 160 uM GlcN6P
U65G U69A	3.5e-05 ± 2e-05 s⁻¹
G51U C71A	2.3e-05 ± 2.1e-05 s⁻¹
G38U U69G	0.000329 ± 0.00018 s⁻¹
A42U C67U	1.57e-05 ± 1.2e-05 s⁻¹
U57A C70A	3.29e-05 ± 2.5e-05 s⁻¹
G44A U45A	3.27e-05 ± 1.7e-05 s⁻¹
G43C C67G	1.71e-05 ± 1.4e-05 s⁻¹
A33G A53C C70A	2.41e-05 ± 1.7e-05 s⁻¹
C10U C68G	1.84e-05 ± 9.5e-06 s⁻¹
C10G U30C C68G	3.82e-05 ± 2.4e-05 s⁻¹
A12U U30A	0.00214 ± 0.0012 s⁻¹

Variants of: B1
Test: self-cleavage kobs at 40 uM GlcN6P; higher = faster cleavage; RNA array
Conditions: with glucosamine-6-phosphate
How it was run: as §1

Variant	self-cleavage kobs at 40 uM GlcN6P
A48G C67A C71G	3.03e-05 ± 2.5e-05 s⁻¹
G32U A33U C50G	3.53e-05 ± 2.2e-05 s⁻¹
G26U U69A	3.92e-05 ± 2e-05 s⁻¹
U47A U65G G66U	3.3e-05 ± 1.9e-05 s⁻¹
U30A U47G A53G	2.28e-05 ± 1.4e-05 s⁻¹
G43C C67A	1.39e-05 ± 9.4e-06 s⁻¹
G43C C67G	1.86e-05 ± 1.6e-05 s⁻¹
